Where a chain is given by its changes, count along the chain named. Results are given in words; binding and its absence hold for the method and conditions named. Binding seen in cells or lysates may run through a third protein. Some binding calls cover weakened binding; strength is not graded here. For some assays here: Sequences can lack the tags named with a protein.
Assays:
[1] = molecular target: T1, FLAG-IRF1 (mouse), wild type (mouse) (UniProt P15314); assay: co-IP; HEK293 cells overexpressing FLAG-IRF1 and GSK3β-HA; 1 mg lysate; IP with anti-HA or anti-FLAG, overnight at 4°C; washes in TNE buffer (10 mM Tris pH 7.4, 1 mM EDTA, 200 mM NaCl); also after DRB (1 μM/1 h), which reduced the co-IP
T1 sequence: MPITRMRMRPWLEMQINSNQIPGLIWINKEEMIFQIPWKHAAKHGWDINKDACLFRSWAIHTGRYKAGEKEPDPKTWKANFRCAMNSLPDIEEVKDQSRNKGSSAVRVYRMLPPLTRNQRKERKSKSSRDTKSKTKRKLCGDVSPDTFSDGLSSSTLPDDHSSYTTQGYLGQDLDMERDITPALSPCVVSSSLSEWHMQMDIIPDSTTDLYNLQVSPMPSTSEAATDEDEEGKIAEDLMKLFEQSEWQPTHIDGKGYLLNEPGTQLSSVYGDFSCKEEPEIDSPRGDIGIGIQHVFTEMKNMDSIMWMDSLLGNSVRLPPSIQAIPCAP

Chains of the proteins cited; added tags and fusions are not shown. Lines headed by an entry give the natural chain unless they say otherwise; changes in a name come on top.
UniProt P49841: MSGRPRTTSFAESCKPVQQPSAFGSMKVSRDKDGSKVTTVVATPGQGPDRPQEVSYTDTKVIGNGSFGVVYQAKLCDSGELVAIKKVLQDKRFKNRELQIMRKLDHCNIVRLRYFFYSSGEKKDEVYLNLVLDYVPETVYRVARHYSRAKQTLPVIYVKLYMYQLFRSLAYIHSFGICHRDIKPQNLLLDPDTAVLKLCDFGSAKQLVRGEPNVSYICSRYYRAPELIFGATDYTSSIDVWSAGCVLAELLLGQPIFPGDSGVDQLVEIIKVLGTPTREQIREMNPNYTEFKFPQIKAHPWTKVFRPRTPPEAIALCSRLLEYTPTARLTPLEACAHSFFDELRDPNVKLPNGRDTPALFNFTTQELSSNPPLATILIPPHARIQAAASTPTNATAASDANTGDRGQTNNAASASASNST
UniProt Q969H0: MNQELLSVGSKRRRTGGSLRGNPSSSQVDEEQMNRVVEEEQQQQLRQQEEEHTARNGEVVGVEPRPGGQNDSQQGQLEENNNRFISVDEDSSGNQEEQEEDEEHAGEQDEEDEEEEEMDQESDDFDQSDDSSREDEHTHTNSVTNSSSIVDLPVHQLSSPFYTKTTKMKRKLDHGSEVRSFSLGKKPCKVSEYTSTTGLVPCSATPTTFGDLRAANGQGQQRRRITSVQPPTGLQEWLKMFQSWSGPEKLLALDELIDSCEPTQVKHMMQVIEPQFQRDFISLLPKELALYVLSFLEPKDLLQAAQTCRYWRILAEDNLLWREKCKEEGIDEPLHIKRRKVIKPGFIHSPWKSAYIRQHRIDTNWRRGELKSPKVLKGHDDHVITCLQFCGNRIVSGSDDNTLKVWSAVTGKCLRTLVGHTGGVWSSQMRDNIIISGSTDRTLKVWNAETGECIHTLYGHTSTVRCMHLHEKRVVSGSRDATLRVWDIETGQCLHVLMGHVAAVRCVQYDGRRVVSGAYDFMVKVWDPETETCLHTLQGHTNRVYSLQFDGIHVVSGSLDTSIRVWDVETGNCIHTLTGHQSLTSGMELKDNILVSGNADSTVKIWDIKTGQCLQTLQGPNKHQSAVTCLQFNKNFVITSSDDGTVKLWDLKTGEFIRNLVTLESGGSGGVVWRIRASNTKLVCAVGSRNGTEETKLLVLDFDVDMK

[2] = molecular target: T1, FLAG-IRF1 (mouse), wild type (mouse); assay: co-IP; HEK293 cells expressing HA-Fbxw7α (or ΔWD40) and FLAG-IRF1 (WT or mutants), with or without GSK3β-HA; MG132 (10 μM) for 6 h prior to lysis; IP with anti-HA or anti-FLAG, western blot
FLAG-IRF1 T181D (mouse) = molecular target: T2, FLAG-IRF1 T181D (mouse) (UniProt P15314); assay: as above
T2 sequence: T1 sequence with T181D

FLAG-IRF1 T181A (mouse) = molecular target: T3, FLAG-IRF1 T181A (mouse) (UniProt P15314); assay: as above
T3 sequence: T1 sequence with T181A

[3] = molecular target: T4, endogenous human IRF1 (human (endogenous in H3396)) (UniProt P10914); assay: co-IP; endogenous proteins in H3396 extracts; IP with IgG, anti-IRF1 or anti-GSK3β; cells pre-treated with MG132 (10 μM) or DMSO for 3 hr, basal or IFNγ-induced; more robustly detected after MG132
T4 sequence: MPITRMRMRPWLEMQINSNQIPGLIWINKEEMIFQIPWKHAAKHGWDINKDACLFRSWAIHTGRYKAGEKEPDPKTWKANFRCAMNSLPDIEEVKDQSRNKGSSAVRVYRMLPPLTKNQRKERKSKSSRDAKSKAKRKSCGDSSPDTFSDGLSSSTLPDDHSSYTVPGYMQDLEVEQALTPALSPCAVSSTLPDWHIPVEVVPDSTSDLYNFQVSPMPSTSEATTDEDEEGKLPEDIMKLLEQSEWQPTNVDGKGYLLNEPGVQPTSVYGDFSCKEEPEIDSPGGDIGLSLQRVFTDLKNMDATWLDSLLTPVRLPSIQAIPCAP

murine GST-IRF1 (mouse) = molecular target: T5, murine GST-IRF1 (mouse) (UniProt P15314); assay: pull-down; GST-IRF1 (1 μg) on GSH beads in NETN buffer (20 mM Tris-HCl pH 8, 100 mM NaCl, 1 mM EDTA, 0.5% NP40); in vitro translated 35S-labelled protein added, overnight at 4°C; 3 washes; autoradiography; only the target purified
T5 sequence: T1 sequence

GSK3β-HA, wild type = GSK3β-HA, wild type (UniProt P49841); assay: co-IP; HEK293 cells overexpressing FLAG-IRF1 and GSK3β-HA; 1 mg lysate; IP with anti-HA or anti-FLAG, overnight at 4°C; washes in TNE buffer (10 mM Tris pH 7.4, 1 mM EDTA, 200 mM NaCl); also after DRB (1 μM/1 h), which reduced the co-IP
GST-Fbxw7α = GST-Fbxw7α (UniProt Q969H0); assay: pull-down; HEK293 lysates expressing GST-Fbxw7 isoforms; NP40 lysis buffer (50 mM Tris pH 7.5, 150 mM NaCl, 0.5% NP40); 0.5 mg lysate with glutathione-sepharose beads, 3 h at 4°C; 3 washes
HA-Fbxw7α = HA-Fbxw7α (UniProt Q969H0); assay: co-IP; HEK293 cells expressing HA-Fbxw7α (or ΔWD40) and FLAG-IRF1 (WT or mutants), with or without GSK3β-HA; MG132 (10 μM) for 6 h prior to lysis; IP with anti-HA or anti-FLAG, western blot
[4] = molecular target: endogenous GSK3β (human (endogenous in H3396)) (UniProt P49841); assay: co-IP; endogenous proteins in H3396 extracts; IP with IgG, anti-IRF1 or anti-GSK3β; cells pre-treated with MG132 (10 μM) or DMSO for 3 hr, basal or IFNγ-induced; more robustly detected after MG132

With “GSK3β-HA K85A (kinase inactive) (from UniProt P49841 1-420) (enzyme)” the binding [1] was “binds”.

In the case of “GSK3β-HA, wild type (from UniProt P49841 1-420) (enzyme)”, the binding [1] is reported as “binds”.

HA-Fbxw7α (from UniProt Q969H0 1-707) was tested, and the binding [2] was “binds”, the binding (FLAG-IRF1 T181D (mouse)) was “binds” and the binding (FLAG-IRF1 T181A (mouse)) was “binds”.

With “endogenous GSK3β (from UniProt P49841 1-420) (enzyme)” the binding [3] was “binds”.

“in vitro transcribed/translated 35S-methionine-labelled GSK3β-HA (from UniProt P49841 1-420) (enzyme)” was tested, and the binding (murine GST-IRF1 (mouse)) was “binds”.

B1: FLAG-IRF1 (mouse), wild type (protein, UniProt P15314 1-329)
chain: T1 sequence
For B1, the binding (GSK3β-HA, wild type) was “binds”, the binding (GST-Fbxw7α) was “binds” and the binding (HA-Fbxw7α) was “binds”.

B2: endogenous human IRF1 (protein, UniProt P10914 1-325)
chain: T4 sequence
With B2 the binding [4] was “binds”.

Reference: paper PMC6511875
